Like-named read-outs stand apart in the source and are kept apart here. No constants are given. Whether binding was seen depends on the method and setting. In cells and extracts the contact can be indirect. Some entries that bind do so weakly or less than the wild type. Blank lines part the entries; values can stand above or below the molecule they belong to.
Experiments:
Assay in all cases: co-IP
[1] = target: Chd4 (chromodomain helicase DNA binding protein 4) (mouse (endogenous in MEF and ES cells)) (UniProt Q6PDQ2)
2XFlag-WT-Mbd3 = 2XFlag-WT-Mbd3 (UniProt Q9Z2D8)
[2] = target: HA-MBD (methyl-binding domain of Mbd3) (UniProt Q9Z2D8)
[3] = target: 2XFlag-Mbd3 (DOX inducible allele, Rosa26-M2RtTA+/- Col1a:TetO-2XFlag-Mbd3+/-) (UniProt Q9Z2D8)
[4] = target: 2XFlag-Mbd3 (DOX inducible allele, Rosa26-M2RtTA+/- Col1a:TetO-2XFlag-Mbd3+/-) (UniProt Q9Z2D8); remark: listed apart in the source
2xFlag-ΔCCR-Mbd3 = 2xFlag-ΔCCR-Mbd3 (UniProt Q9Z2D8)
[5] = target: 2XFlag-Mbd3 (DOX inducible allele, Rosa26-M2RtTA+/- Col1a:TetO-2XFlag-Mbd3+/-) (UniProt Q9Z2D8); remark: listed apart in the source

Amino acid sequences for entries named in this document (tags omitted). A change or cut given only in a name is not applied to a line headed by its entry. Chains listed by the source or under a name are the forms on record and can include a tag or linker. Residues count along the entry.
UniProt Q6PDQ2: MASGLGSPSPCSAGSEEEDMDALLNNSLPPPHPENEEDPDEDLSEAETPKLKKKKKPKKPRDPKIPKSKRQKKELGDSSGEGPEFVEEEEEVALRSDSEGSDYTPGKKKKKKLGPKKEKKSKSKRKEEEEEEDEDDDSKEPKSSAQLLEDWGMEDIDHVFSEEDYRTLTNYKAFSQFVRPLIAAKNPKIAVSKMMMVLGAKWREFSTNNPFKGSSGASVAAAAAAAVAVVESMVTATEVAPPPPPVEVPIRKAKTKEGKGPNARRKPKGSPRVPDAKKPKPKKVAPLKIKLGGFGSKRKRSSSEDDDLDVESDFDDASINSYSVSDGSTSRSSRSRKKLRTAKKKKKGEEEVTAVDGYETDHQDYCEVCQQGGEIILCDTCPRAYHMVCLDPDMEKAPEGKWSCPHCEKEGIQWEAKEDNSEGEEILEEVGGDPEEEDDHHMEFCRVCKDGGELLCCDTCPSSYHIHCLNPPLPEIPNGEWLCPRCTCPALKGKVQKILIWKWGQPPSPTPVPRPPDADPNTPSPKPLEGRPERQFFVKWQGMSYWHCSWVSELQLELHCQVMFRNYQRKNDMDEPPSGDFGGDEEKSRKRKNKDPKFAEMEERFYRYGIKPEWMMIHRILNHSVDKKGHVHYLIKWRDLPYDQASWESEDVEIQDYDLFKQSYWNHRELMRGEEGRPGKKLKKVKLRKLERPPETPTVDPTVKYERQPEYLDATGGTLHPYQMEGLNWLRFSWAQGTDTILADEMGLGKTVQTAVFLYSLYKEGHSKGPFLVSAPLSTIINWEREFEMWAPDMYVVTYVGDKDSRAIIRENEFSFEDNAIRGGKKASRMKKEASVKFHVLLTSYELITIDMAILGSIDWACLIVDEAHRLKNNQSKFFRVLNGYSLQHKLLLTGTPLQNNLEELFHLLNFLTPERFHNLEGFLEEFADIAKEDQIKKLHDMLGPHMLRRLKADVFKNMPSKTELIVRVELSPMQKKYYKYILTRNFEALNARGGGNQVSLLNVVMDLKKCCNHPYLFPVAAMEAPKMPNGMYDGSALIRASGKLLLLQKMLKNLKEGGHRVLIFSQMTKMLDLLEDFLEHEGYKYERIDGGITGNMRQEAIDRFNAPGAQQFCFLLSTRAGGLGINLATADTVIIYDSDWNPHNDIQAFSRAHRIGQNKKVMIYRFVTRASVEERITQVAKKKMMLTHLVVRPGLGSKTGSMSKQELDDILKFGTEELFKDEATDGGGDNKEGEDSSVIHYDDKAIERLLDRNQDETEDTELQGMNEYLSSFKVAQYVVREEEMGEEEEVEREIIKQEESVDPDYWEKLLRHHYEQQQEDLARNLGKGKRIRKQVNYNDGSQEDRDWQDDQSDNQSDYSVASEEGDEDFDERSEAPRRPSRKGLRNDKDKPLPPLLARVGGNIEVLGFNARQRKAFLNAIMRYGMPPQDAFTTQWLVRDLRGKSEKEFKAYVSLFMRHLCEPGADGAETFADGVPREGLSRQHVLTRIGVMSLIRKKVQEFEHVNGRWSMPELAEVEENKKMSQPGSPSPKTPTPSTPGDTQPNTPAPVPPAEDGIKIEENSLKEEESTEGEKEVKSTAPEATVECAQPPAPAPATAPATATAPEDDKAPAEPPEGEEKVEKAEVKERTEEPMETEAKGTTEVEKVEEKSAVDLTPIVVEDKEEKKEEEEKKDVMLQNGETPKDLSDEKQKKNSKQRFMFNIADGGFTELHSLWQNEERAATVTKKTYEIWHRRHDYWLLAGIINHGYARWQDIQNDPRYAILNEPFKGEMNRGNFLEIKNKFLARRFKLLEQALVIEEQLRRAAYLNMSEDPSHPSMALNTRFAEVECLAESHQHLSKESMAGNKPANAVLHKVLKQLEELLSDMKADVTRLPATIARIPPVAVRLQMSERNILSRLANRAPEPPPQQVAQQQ
UniProt Q9Z2D8: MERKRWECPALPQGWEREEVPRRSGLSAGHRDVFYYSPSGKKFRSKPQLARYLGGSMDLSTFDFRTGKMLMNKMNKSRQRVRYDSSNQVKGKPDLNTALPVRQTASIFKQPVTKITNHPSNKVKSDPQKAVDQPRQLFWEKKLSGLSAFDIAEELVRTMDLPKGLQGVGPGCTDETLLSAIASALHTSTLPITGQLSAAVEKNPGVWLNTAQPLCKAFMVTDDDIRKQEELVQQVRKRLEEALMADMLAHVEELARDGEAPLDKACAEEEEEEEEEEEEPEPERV
HA-MBD (methyl-binding domain of Mbd3): residues 1-170 of Q9Z2D8
2xFlag-ΔCCR-Mbd3 (Q9Z2D8, form named): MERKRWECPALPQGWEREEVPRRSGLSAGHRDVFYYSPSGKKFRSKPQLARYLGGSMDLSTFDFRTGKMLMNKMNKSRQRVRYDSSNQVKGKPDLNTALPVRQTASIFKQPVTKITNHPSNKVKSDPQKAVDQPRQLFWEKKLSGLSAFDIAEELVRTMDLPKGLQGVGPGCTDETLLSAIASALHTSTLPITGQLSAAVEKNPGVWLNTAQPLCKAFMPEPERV
UniProt Q8CHY6: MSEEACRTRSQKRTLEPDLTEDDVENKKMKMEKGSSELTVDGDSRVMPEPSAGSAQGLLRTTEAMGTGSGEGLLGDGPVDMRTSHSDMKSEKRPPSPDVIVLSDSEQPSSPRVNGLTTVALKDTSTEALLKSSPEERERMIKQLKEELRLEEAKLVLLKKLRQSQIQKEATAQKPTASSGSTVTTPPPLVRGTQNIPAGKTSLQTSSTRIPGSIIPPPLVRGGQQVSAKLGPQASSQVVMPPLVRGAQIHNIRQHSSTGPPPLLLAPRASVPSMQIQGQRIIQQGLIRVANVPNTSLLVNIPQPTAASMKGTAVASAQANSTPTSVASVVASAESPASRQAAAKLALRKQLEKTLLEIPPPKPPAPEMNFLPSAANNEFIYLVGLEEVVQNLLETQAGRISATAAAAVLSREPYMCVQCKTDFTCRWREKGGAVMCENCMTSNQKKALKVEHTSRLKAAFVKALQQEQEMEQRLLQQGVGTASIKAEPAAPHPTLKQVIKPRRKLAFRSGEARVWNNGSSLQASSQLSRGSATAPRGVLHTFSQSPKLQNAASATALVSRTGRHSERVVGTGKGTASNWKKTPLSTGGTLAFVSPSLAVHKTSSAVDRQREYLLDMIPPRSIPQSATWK
UniProt Q92769: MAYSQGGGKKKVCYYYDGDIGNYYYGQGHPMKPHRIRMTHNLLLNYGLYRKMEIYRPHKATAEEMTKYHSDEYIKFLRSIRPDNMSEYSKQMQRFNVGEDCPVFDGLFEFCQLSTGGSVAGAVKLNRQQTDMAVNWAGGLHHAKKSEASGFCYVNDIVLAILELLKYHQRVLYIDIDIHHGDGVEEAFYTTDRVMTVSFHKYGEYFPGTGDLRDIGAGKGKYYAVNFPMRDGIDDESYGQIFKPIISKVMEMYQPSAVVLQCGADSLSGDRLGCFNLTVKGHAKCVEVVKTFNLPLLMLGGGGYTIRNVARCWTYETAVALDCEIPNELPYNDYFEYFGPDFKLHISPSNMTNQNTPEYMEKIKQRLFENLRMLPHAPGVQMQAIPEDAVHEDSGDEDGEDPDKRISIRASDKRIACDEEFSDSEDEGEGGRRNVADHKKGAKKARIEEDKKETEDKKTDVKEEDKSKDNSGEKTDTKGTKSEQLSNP
UniProt Q14839: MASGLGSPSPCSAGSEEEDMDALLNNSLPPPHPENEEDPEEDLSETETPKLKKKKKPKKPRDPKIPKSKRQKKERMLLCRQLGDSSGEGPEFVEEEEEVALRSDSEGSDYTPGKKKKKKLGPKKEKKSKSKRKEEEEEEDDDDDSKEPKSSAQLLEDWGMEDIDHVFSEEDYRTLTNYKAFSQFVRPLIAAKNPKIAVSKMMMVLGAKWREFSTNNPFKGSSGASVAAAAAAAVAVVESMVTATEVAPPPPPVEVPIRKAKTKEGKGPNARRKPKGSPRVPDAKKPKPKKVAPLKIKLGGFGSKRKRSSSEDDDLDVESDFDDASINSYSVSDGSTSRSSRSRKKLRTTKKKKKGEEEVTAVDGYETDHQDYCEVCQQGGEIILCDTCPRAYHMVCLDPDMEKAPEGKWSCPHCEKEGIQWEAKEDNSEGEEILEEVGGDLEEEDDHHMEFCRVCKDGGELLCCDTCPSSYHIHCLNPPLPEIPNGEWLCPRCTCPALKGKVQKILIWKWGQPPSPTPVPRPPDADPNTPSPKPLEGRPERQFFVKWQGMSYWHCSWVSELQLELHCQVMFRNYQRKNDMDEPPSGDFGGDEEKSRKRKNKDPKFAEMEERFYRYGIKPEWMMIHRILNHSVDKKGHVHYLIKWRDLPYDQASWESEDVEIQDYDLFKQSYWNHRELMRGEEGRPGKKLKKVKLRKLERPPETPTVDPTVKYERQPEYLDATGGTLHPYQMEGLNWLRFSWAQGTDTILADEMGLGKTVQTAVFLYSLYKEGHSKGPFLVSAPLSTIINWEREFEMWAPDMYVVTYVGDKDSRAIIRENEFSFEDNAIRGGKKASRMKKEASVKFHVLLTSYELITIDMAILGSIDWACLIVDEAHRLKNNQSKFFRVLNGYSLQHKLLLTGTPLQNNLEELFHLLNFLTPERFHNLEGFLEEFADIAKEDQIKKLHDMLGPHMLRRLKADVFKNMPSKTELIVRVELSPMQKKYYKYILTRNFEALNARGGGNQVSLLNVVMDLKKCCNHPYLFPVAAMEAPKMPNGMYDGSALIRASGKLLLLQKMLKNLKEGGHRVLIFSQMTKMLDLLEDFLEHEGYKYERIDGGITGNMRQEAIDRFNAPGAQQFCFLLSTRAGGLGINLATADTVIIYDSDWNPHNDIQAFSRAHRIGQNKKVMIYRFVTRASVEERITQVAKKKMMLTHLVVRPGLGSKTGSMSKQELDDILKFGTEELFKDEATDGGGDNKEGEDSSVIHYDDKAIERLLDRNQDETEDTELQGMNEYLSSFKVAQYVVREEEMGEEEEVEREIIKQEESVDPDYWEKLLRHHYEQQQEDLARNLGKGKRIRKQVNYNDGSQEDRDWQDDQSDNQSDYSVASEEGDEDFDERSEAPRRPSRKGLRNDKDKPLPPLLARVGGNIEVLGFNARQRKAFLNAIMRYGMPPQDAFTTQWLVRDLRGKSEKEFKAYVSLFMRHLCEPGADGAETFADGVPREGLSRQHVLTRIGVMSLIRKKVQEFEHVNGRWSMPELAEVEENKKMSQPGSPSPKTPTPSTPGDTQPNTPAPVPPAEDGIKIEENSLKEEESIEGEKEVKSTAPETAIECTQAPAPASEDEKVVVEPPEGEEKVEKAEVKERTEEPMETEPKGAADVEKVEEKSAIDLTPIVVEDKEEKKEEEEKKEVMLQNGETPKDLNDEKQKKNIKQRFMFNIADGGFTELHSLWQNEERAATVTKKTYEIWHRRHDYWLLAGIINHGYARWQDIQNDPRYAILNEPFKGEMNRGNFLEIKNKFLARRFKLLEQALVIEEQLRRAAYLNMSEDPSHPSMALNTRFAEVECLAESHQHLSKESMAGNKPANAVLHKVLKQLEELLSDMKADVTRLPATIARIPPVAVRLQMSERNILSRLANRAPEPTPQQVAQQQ
UniProt Q9R190: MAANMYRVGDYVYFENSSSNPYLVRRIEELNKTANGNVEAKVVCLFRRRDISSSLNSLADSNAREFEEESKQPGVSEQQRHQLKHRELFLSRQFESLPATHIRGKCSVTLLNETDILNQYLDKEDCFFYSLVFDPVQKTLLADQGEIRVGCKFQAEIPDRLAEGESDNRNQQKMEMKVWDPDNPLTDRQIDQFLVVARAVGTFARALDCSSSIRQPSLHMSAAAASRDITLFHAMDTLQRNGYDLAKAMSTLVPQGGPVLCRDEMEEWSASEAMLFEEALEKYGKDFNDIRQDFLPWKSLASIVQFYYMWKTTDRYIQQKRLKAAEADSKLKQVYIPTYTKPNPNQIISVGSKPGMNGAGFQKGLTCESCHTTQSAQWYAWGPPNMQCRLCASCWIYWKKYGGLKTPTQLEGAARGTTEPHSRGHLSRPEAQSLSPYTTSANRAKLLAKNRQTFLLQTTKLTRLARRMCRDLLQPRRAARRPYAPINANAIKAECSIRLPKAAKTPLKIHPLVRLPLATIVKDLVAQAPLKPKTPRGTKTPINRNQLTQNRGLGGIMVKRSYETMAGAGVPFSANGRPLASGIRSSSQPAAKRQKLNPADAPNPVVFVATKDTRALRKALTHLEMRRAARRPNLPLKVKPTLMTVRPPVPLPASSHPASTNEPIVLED

Molecule: Gatad2a-WT (construct) (from UniProt Q8CHY6 1-629)
binding (2XFlag-WT-Mbd3): binds

Molecule: Hdac2 (in 293T cells) (from UniProt Q92769 1-488)
binding (2XFlag-WT-Mbd3): binds | binding [2]: binds

Molecule: endogenous Chd4 (293T cells) (from UniProt Q14839 1-1912)
binding (2xFlag-ΔCCR-Mbd3): no binding | binding [2]: no binding

Results, then the molecule that gave them:

binding [1]: binds
Molecule: Gatad2a (from UniProt Q8CHY6 1-629)

binding (2XFlag-WT-Mbd3): binds
Molecule: HA-Gatad2a-CCR1 (from UniProt Q8CHY6 140-174) (peptide)

binding [3]: binds | binding [4]: binds | binding [1]: binds
Molecule: Mta2 (from UniProt Q9R190 1-668)

binding [5]: binds
B1: Cdk2ap1 (protein, UniProt O35207 1-114)
chain: MSYKPNLTAHMPAAALNAGSVHSPSTSMATSSQYRQLLSDYGPPSLGYTQGTGNSQVPQSKYAELLAIIEELGKEIRPTYAGSKSAMERLKRGIIHARSLVRECLAETERNARS

From article doi:10.1101/192781
